Results taken from US8394795B2, “Pyrazole [3, 4-B] pyridine Raf inhibitors” (Array BioPharma Inc., priority 2008, dated 2013).
Some of these results come from one statement about several compounds together.

Protein sequences, listed by entry. Tags and fused reporters are not part of them.
UniProt P15056, whole entry V600E: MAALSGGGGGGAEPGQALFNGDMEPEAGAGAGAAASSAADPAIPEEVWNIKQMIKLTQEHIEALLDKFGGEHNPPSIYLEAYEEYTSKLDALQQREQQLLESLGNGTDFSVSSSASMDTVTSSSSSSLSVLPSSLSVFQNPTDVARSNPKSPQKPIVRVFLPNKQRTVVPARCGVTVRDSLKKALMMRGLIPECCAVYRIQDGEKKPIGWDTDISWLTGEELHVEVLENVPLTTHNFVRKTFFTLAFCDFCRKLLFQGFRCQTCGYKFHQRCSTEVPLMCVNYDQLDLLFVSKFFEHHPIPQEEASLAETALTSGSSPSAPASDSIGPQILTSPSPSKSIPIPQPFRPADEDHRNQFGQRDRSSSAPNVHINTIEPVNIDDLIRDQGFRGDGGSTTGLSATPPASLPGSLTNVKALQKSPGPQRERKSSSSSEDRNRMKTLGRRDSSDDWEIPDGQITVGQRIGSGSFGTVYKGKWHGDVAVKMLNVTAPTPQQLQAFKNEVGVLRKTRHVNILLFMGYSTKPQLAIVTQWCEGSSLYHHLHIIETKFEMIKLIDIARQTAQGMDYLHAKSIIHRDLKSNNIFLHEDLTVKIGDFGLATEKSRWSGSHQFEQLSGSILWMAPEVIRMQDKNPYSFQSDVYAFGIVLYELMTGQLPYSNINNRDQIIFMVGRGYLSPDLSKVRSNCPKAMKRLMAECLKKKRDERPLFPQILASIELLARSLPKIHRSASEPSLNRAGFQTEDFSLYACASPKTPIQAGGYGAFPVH

Biological target: T1, V600E full-length B-Raf (Homo sapiens, UniProt P15056, V600E)
T1 construct: 20 nM V600E full-length B-Raf; made in house; host or cells: Sf9 insect cells (baculovirus)
Test: B-Raf IC50 Assay
Assay type: biochemical
Conditions: incorporation of radio labeled phosphate from [γ-33P]ATP into FSBA-modified wild-type MEK; 4 μM ATP, 20 nM V600E full-length B-Raf, 22° C., 60-minute incubation

SMILES	IC50 [nM]
CCCS(=O)(=O)Nc1ccc(F)c(C(=O)Nc2cnc3[nH]nc(C4CN(C)C4)c3c2)c1F [Example 103, 2,6-difluoro-N-(3-(1-methylazetidin-3-yl)-1H-pyrazolo[3,4-b]pyridin-5-yl)-3-(propylsulfonamido) benzamide]	< 1000
COCCOc1n[nH]c2ncc(NC(=O)c3c(F)ccc(NS(=O)(=O)CCCF)c3F)cc12 [Example 90, 2,6-difluoro-3-(3-fluoropropylsulfonamido)-N-(3-(2-methoxyethoxy)-1H-pyrazolo[3,4-b]pyridin-5-yl)benzamide]	< 1000
CCCS(=O)(=O)Nc1ccc(F)c(C(=O)Nc2cnc3[nH]nc(OCC4COC4)c3c2)c1F [Example 85, 2,6-difluoro-N-(3-(oxetan-3-ylmethoxy)-1H-pyrazolo[3,4-b]pyridin-5-yl)-3-(propylsulfonamido)benzamide]	< 1000
CCCS(=O)(=O)Nc1ccc(F)c(C(=O)Nc2cnc3[nH]nc(CC(C)C)c3c2)c1F [Example 37, 2,6-difluoro-N-(3-isobutyl-1H-pyrazolo[3,4-b]pyridin-5-yl)-3-(propylsulfonamido) benzamide]	< 1000
CCCS(=O)(=O)Nc1ccc(F)c(C(=O)Nc2cnc3[nH]nc(-c4ccc(C(F)(F)F)cc4)c3c2)c1F [Example 24, 2,6-difluoro-3-(propylsulfonamido)-N-(3-(4-(trifluoromethyl)phenyl)-1H-pyrazolo[3,4-b]pyridin-5-yl)benzamide]	< 1000
CCCS(=O)(=O)Nc1ccc(Cl)c(C(=O)Nc2cnc3[nH]nc(OC)c3c2)c1Cl [Example 93, 2,6-dichloro-N-(3-methoxy-1H-pyrazolo[3,4-b]pyridin-5-yl)-3-(propylsulfonamido)benzamide]	< 1000
CCOc1n[nH]c2ncc(NC(=O)c3c(F)ccc(NS(=O)(=O)CCCF)c3F)cc12 [Example 60, N-(3-ethoxy-1H-pyrazolo[3,4-b]pyridin-5-yl)-2,6-difluoro-3-(3-fluoropropylsulfonamido)benzamide]	< 1000
COc1n[nH]c2ncc(NC(=O)c3c(F)ccc(NS(=O)(=O)CCCF)c3F)cc12 [Example 58, 2,6-difluoro-3-(3-fluoropropylsulfonamido)-N-(3-methoxy-1H-pyrazolo[3,4-b]pyridin-5-yl)benzamide]	< 1000
CCCS(=O)(=O)Nc1ccc(F)c(C(=O)Nc2cnc3[nH]nc(-c4cccc(CN5CCOCC5)c4)c3c2)c1F [Example 39, 2,6-difluoro-N-(3-(3-(morpholinomethyl)phenyl)-1H-pyrazolo[3,4-b]pyridin-5-yl)-3-(propylsulfonamido) benzamide]	< 1000
COc1n[nH]c2ncc(NC(=O)c3c(F)ccc(NS(=O)(=O)c4ccc(Cl)c(C(F)(F)F)c4)c3F)cc12 [Example 133, 3-(4-chloro-3-(trifluoromethyl)phenylsulfonamido)-2,6-difluoro-N-(3-methoxy-1H-pyrazolo [3,4-b]pyridin-5-yl)benzamide]	< 1000
COc1n[nH]c2ncc(NC(=O)c3c(F)ccc(NS(=O)(=O)N4CCCC4)c3F)cc12 [Example 149, 2,6-difluoro-N-(3-methoxy-1H-pyrazolo[3,4-b]pyridin-5-yl)-3-(pyrrolidine-1-sulfonamido)benzamide]	< 1000
CCCS(=O)(=O)Nc1ccc(F)c(C(=O)Nc2cnc3[nH]nc(C4CC4)c3c2)c1F [Example 5, N-(3-cyclopropyl-1H-pyrazolo[3,4-b]pyridin-5-yl)-2,6-difluoro-3-(propylsulfonamido)benzamide]	< 1000
CCCS(=O)(=O)Nc1ccc(F)c(C(=O)Nc2cnc3[nH]nc(-c4ccc(F)cc4)c3c2)c1F [Example 27, 2,6-difluoro-N-(3-(4-fluorophenyl)-1H-pyrazolo[3,4-b]pyridin-5-yl)-3-(propylsulfonamido) benzamide]	< 1000
CCCS(=O)(=O)Nc1ccc(F)c(C(=O)Nc2cnc3[nH]nc(OC)c3c2)c1 [Example 147, 2-fluoro-N-(3-methoxy-1H-pyrazolo [3,4-b]pyridin-5-yl)-5-(propylsulfonamido)benzamide]	< 1000
CCCS(=O)(=O)Nc1ccc(F)c(C(=O)Nc2cnc3[nH]nc(OC4COC4)c3c2)c1F [Example 81, 2,6-difluoro-N-(3-(oxetan-3-yloxy)-1H-pyrazolo[3,4-b]pyridin-5-yl)-3-(propylsulfonamido)benzamide]	< 1000
CCNS(=O)(=O)Nc1ccc(F)c(C(=O)Nc2cnc3[nH]nc(OC)c3c2)c1F [Example 97, 3-(N-ethylsulfamoylamino)-2,6-difluoro-N-(3-methoxy-1H-pyrazolo[3,4-b]pyridin-5-yl)benzamide]	< 1000
CSc1n[nH]c2ncc(NC(=O)c3c(Cl)ccc(NS(=O)(=O)CCCF)c3F)cc12 [Example 122, 6-chloro-2-fluoro-3-(3-fluoropropylsulfonamido)-N-(3-(methylthio)-1H-pyrazolo [3,4-b]pyridin-5-yl)benzamide]	< 1000
CCCS(=O)(=O)Nc1ccc(Cl)c(C(=O)Nc2cnc3[nH]nc(OCCF)c3c2)c1F [Example 79, 6-chloro-2-fluoro-N-(3-(2-fluoroethoxy)-1H-pyrazolo[3,4-b]pyridin-5-yl)-3-(propylsulfonamido)benzamide]	< 1000

SMILES	IC50 [nM]
O=C(Nc1cnc2[nH]nc(C3CC3)c2c1)c1c(F)ccc(NS(=O)(=O)CC2CC2)c1F [Example 41, N-(3-cyclopropyl-1H-pyrazolo[3,4-b]pyridin-5-yl)-3-(cyclopropylmethyl-sulfonamido)-2,6-difluorobenzamide]	< 1000
CCCS(=O)(=O)Nc1ccc(Cl)c(C(=O)Nc2cnc3[nH]nc(N4CCCC4)c3c2)c1F [Example 124, 6-chloro-2-fluoro-3-(propylsulfonamido)-N-(3-(pyrrolidin-1-yl)-1H-pyrazolo [3,4-b]pyridin-5-yl)benzamide]	< 1000
CCCS(=O)(=O)Nc1ccc(F)c(C(=O)Nc2cnc3[nH]nc(OC)c3c2)c1F [Example 20, 2,6-difluoro-N-(3-methoxy-1H-pyrazolo[3,4-b]pyridin-5-yl)-3-(propylsulfonamido)benzamide]	< 1000
CCCS(=O)(=O)Nc1ccc(F)c(C(=O)Nc2cnc3[nH]nc(-c4cc(F)cc(F)c4)c3c2)c1F [Example 25, N-(3-(3,5-difluorophenyl)-1H-pyrazolo[3,4-b]pyridin-5-yl)-2,6-difluoro-3-(propylsulfonamido) benzamide]	< 1000
CCCS(=O)(=O)Nc1ccc(Cl)c(C(=O)Nc2cnc3[nH]nc(O[C@@H]4CCOC4)c3c2)c1F [Example 142, (R)-6-chloro-2-fluoro-3-(propylsulfonamido)-N-(3-(tetrahydrofuran-3-yloxy)-1H-pyrazolo[3,4-b]pyridin-5-yl)benzamide]	< 1000
CCCS(=O)(=O)Nc1ccc(F)c(C(=O)Nc2cnc3[nH]nc(NC(C)C)c3c2)c1F [Example 70, 2,6-difluoro-N-(3-(isopropylamino)-1H-pyrazolo[3,4-b]pyridin-5-yl)-3-(propylsulfonamido)benzamide]	< 1000
CCCS(=O)(=O)Nc1ccc(F)c(C(=O)Nc2cnc3[nH]nc(C(=O)C4CC4)c3c2)c1F [Example 68]	< 1000
CCCS(=O)(=O)Nc1cccc(C(=O)Nc2cnc3[nH]nc(SC)c3c2)c1F [Example 114, 2-fluoro-N-(3-(methylthio)-1H-pyrazolo[3,4-b]pyridin-5-yl)-3-(propylsulfonamido)benzamide]	< 1000
COc1n[nH]c2ncc(NC(=O)c3c(F)ccc(NS(=O)(=O)NCC(F)F)c3F)cc12 [Example 146, 3-(N-(2,2-difluoroethyl)sulfamoylamino)-2,6-difluoro-N-(3-methoxy-1H-pyrazolo [3,4-b]pyridin-5-yl)benzamide]	< 1000
COc1n[nH]c2ncc(NC(=O)c3c(F)ccc(NS(=O)(=O)c4cccs4)c3F)cc12 [Example 138, 2,6-difluoro-N-(3-methoxy-1H-pyrazolo[3,4-b]pyridin-5-yl)-3-(thiophene-2-sulfonamido)benzamide]	< 1000
COc1n[nH]c2ncc(NC(=O)c3c(F)ccc(NS(=O)(=O)C4CC4)c3F)cc12 [Example 132, 3-(cyclopropanesulfonamido)-2,6-difluoro-N-(3-methoxy-1H-pyrazolo[3,4-b]pyridin-5-yl)benzamide]	< 1000
CCCS(=O)(=O)Nc1ccc(F)c(C(=O)Nc2cnc3[nH]nc(CCCO)c3c2)c1F [Example 9, 2,6-difluoro-N-(3-(3-hydroxypropyl)-1H-pyrazolo[3,4-b]pyridin-5-yl)-3-(propylsulfonamido)benzamide]	< 1000
CCCS(=O)(=O)Nc1ccc(F)c(C(=O)Nc2cnc3[nH]nc(C4CCNCC4)c3c2)c1F [Example 8, 2,6-difluoro-N-(3-(piperidin-4-yl)-1H-pyrazolo[3,4-b]pyridin-5-yl)-3-(propylsulfonamido)benzamide]	< 1000
COc1n[nH]c2ncc(NC(=O)c3c(F)ccc(NS(=O)(=O)c4cccc(F)c4)c3F)cc12 [Example 135, 2,6-difluoro-3-(3-fluorophenylsulfonamido)-N-(3-methoxy-1H-pyrazolo[3,4-b]pyridin-5-yl)benzamide]	< 1000
CCCS(=O)(=O)Nc1ccc(F)c(C(=O)Nc2cnc3[nH]nc(C#CCN(CC)CC)c3c2)c1F [Example 76]	< 1000
CCS(=O)(=O)Nc1ccc(F)c(C(=O)Nc2cnc3[nH]nc(C4CC4)c3c2)c1F [Example 73, N-(3-cyclopropyl-1H-pyrazolo[3,4-b]pyridin-5-yl)-3-(ethylsulfonamido)-2,6-difluorobenzamide]	< 1000
COc1n[nH]c2ncc(NC(=O)c3c(F)ccc(NS(=O)(=O)CC4CC4)c3F)cc12 [Example 126, 3-(cyclopropylmethylsulfonamido)-2,6-dif1uoro-N-(3-methoxy-1H-pyrazolo[3,4-b]pyridin-5-yl) benzamide]	< 1000
CCCc1n[nH]c2ncc(NC(=O)c3c(F)ccc(NS(=O)(=O)CCC)c3F)cc12 [Example 38, 2,6-difluoro-N-(3-propyl-1H-pyrazolo [3,4-b]pyridin-5-yl)-3-(propylsulfonamido) benzamide]	< 1000
